The record followed here is doi:10.1101/2022.03.28.486104.

The chains behind the UniProt entries cited, without tags or fusion partners. Residues count along the entry.
UniProt Q9NZQ7, residues 19-290: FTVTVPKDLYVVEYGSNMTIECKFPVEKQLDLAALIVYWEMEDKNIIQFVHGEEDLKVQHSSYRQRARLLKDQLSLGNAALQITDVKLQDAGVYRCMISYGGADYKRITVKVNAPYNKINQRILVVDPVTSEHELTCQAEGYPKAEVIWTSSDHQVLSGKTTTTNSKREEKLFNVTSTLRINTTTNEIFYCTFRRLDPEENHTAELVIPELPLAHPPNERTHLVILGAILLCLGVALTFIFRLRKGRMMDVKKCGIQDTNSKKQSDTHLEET
UniProt P42081, residues 24-329: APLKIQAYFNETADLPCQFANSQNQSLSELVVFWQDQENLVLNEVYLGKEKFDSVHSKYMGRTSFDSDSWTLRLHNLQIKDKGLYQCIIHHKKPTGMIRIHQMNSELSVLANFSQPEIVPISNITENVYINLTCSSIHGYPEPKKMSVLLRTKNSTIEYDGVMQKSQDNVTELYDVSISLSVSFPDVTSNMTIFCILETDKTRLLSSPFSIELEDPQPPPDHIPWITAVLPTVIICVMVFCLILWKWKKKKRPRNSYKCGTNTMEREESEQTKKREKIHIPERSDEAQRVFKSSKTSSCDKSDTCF

This assay deals with PD-L1 C-terminally tagged with mCherry, in DG-75 B cells (human) (UniProt Q9NZQ7). Description: co-IP + cross-linking.

No constants are given. Whether binding was seen depends on the method and setting. Binding seen in cells or lysates may run through a third protein.

Take “CD86 C-terminally tagged with GFP, in DG-75 B cells (from UniProt P42081 24-329) (ligand)”: the binding result was “no binding”.
